Laboratory results as given in paper PMC8287961.
Results are given in words; binding and its absence hold for the method and conditions named. For some assays here: In cells and extracts the contact can be indirect. Some entries that bind do so weakly or less than the wild type.

Protein sequences, listed by entry. Tags and fused reporters are not part of them. Lines headed by an entry give the natural chain unless they say otherwise; changes in a name come on top.
UniProt P83917: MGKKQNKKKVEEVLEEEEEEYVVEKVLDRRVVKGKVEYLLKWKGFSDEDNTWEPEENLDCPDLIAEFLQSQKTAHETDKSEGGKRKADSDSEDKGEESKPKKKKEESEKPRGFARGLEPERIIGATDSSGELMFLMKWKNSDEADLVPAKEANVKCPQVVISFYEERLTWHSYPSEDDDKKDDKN

Legend:
[1] = target: GFP-HP1β (BHK cells, F3H bait) (UniProt P83917); assay: fluorescence three hybrid (F3H) assay; BHK cells with lac operator arrays, transiently transfected; GFP or GFP-HP1β anchored at the lacO spot, accumulation of Ch-CCN at the spot seen by confocal microscopy; fixed 16 h after transfection
[2] = target: HP1β phosphorylated at serine 89 (endogenous, mESCs) (mouse (endogenous in mESCs)), P83917; assay: co-IP; mESC lysate (naive and metastable state; 150 mM NaCl, 0.5% NP40, Benzonase); anti-HP1β-pS89 antibody, protein G beads; washes with 300 mM NaCl; western blot; settings: remark: other sources report otherwise

Binder	binding [1]	binding [2]
Ch-CCN (N-terminal part of the coiled-coil domain of KAP1, aa 250–324) (domain or fragment, UniProt Q62318 250-324) VRNQRKLLASLVKRLGDKHATLQKNTKEVRSSIRQVSDVQKRVQVDVKMAILQIMKELNKRGRVLVNDAQKVTEG	binds	–
KAP1 (endogenous, mESCs), Q62318 1-834 (protein, here or on the partner: phosphoserine at 89) MAASAAATAAASAATAASAASGSPGSGEGSAGGEKRPAASSAAAASAAASSPAGGGGEAQELLEHCGVCRERLRPERDPRLLPCLHSACSACLGPATPAAANNSGDGGSAGDGAMVDCPVCKQQCYSKDIVENYFMRDSGSKASSDSQDANQCCTSCEDNAPATSYCVECSEPLCETCVEAHQRVKYTKDHTVRSTGPAKTRDGERTVYCNVHKHEPLVLFCESCDTLTCRDCQLNAHKDHQYQFLEDAVRNQRKLLASLVKRLGDKHATLQKNTKEVRSSIRQVSDVQKRVQVDVKMAILQIMKELNKRGRVLVNDAQKVTEGQQERLERQHWTMTKIQKHQEHILRFASWALESDNNTALLLSKKLIYFQLHRALKMIVDPVEPHGEMKFQWDLNAWTKSAEAFGKIVAERPGTNSTGPGPMAPPRAPGPLSKQGSGSSQPMEVQEGYGFGSDDPYSSAEPHVSGMKRSRSGEGEVSGLLRKVPRVSLERLDLDLTSDSQPPVFKVFPGSTTEDYNLIVIERGAAAAAAGQAGTVPPGAPGAPPLPGMAIVKEEETEAAIGAPPAAPEGPETKPVLMPLTEGPGAEGPRLASPSGSTSSGLEVVAPEVTSAPVSGPGILDDSATICRVCQKPGDLVMCNQCEFCFHLDCHLPALQDVPGEEWSCSLCHVLPDLKEEDGSLSLDGADSTGVVAKLSPANQRKCERVLLALFCHEPCRPLHQLATDSTFSMEQPGGTLDLTLIRARLQEKLSPPYSSPQEFAQDVGRMFKQFNKLTEDKADVQSIIGLQRFFETRMNDAFGDTKFSAVLVEPPPLNLPSAGLSSQELSGPGDGP	–	binds
